Experimental data published in the supplement of paper PMC7661543.
± gives the standard deviation of the averaged measurements. The effect of the compound repeats well; differences between the knockouts mostly do not.

System: MDA-MB-231
Assay: relative cell number vs DMSO control (72 h) (% of DMSO); higher = less growth inhibition (more cells)
Method: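 QMAP-Seq: a pool of 5 breast cancer cell lines (ZR-75-1, SKBR3, HCC-38, MDA-MB-231, BT-20), each carrying 12 doxycycline-inducible Cas9 sgRNA perturbations (11 knockouts plus non-targeting sgNT), was treated with compounds for 72 h at four 10-fold doses (10 nM-10 uM or 1 nM-1 uM range). Barcodes were amplified and sequenced, and cell number was interpolated from 293T spike-in standard curves. The result is expressed as % of the median of DMSO wells. Two biological replicates.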

O=C1CCC(N2C(=O)c3ccccc3C2=O)C(=O)N1 (configuration not stated) [Thalidomide]
Settings	relative cell number
sgRNA knockout: sgATF3, 10 nM	105 ± 21
sgRNA knockout: sgATF3, 100 nM	101 ± 11
sgRNA knockout: sgATF3, 1000 nM	107 ± 15
sgRNA knockout: sgATF3, 10000 nM	118 ± 4.2
sgRNA knockout: sgATF4, 10 nM	152 ± 15
sgRNA knockout: sgATF4, 100 nM	94.8 ± 14
sgRNA knockout: sgATF4, 1000 nM	137 ± 40
sgRNA knockout: sgATF4, 10000 nM	148 ± 5.3
sgRNA knockout: sgATF6, 10 nM	101 ± 14
sgRNA knockout: sgATF6, 100 nM	83.1 ± 10
sgRNA knockout: sgATF6, 1000 nM	102.7 ± 0.39
sgRNA knockout: sgATF6, 10000 nM	119 ± 9.6
sgRNA knockout: sgATG7, 10 nM	100 ± 2
sgRNA knockout: sgATG7, 100 nM	102 ± 3.7
sgRNA knockout: sgATG7, 1000 nM	93.4 ± 11
sgRNA knockout: sgATG7, 10000 nM	110 ± 16
sgRNA knockout: sgERN1, 10 nM	103 ± 15
sgRNA knockout: sgERN1, 100 nM	84.2 ± 13
sgRNA knockout: sgERN1, 1000 nM	122 ± 20
sgRNA knockout: sgERN1, 10000 nM	121 ± 2.6
sgRNA knockout: sgHSF1, 10 nM	114 ± 26
sgRNA knockout: sgHSF1, 100 nM	84.2 ± 24
sgRNA knockout: sgHSF1, 1000 nM	89.8 ± 23
sgRNA knockout: sgHSF1, 10000 nM	123 ± 11
sgRNA knockout: sgHSF2, 10 nM	105 ± 14
sgRNA knockout: sgHSF2, 100 nM	97.9 ± 4.5
sgRNA knockout: sgHSF2, 1000 nM	116 ± 2.4
sgRNA knockout: sgHSF2, 10000 nM	104 ± 27
sgRNA knockout: sgKEAP1, 10 nM	91.9 ± 13
sgRNA knockout: sgKEAP1, 100 nM	96 ± 24
sgRNA knockout: sgKEAP1, 1000 nM	104 ± 15
sgRNA knockout: sgKEAP1, 10000 nM	105 ± 1.4
sgRNA knockout: sgNFE2L2, 10 nM	130 ± 26
sgRNA knockout: sgNFE2L2, 100 nM	88.4 ± 4.3
sgRNA knockout: sgNFE2L2, 1000 nM	129 ± 2
sgRNA knockout: sgNFE2L2, 10000 nM	141 ± 18
sgRNA knockout: sgSLC35F2, 10 nM	97.1 ± 17
sgRNA knockout: sgSLC35F2, 100 nM	65.3 ± 18
sgRNA knockout: sgSLC35F2, 1000 nM	108 ± 5.7
sgRNA knockout: sgSLC35F2, 10000 nM	124 ± 18
sgRNA knockout: sgXBP1, 10 nM	104 ± 3.8
sgRNA knockout: sgXBP1, 100 nM	79 ± 4.8
sgRNA knockout: sgXBP1, 1000 nM	118 ± 11
sgRNA knockout: sgXBP1, 10000 nM	149 ± 14

COc1cc(-n2c(=S)[nH]c3ccccc3c2=O)c(Cl)cc1Cl [Mdivi1]
Settings	relative cell number
sgRNA knockout: sgATF3, 10 nM	88.9 ± 10
sgRNA knockout: sgATF3, 100 nM	86 ± 28
sgRNA knockout: sgATF3, 1000 nM	88.9 ± 16
sgRNA knockout: sgATF3, 10000 nM	63.1 ± 24
sgRNA knockout: sgATF4, 10 nM	74.9 ± 9.3
sgRNA knockout: sgATF4, 100 nM	95.8 ± 14
sgRNA knockout: sgATF4, 1000 nM	126 ± 21
sgRNA knockout: sgATF4, 10000 nM	86 ± 1.2
sgRNA knockout: sgATF6, 10 nM	96.8 ± 9.3
sgRNA knockout: sgATF6, 100 nM	96.6 ± 9.8
sgRNA knockout: sgATF6, 1000 nM	89.5 ± 5.2
sgRNA knockout: sgATF6, 10000 nM	75.6 ± 2.2
sgRNA knockout: sgATG7, 10 nM	86.5 ± 2.6
sgRNA knockout: sgATG7, 100 nM	88 ± 5.6
sgRNA knockout: sgATG7, 1000 nM	95.8 ± 6.7
sgRNA knockout: sgATG7, 10000 nM	72.4 ± 15
sgRNA knockout: sgERN1, 10 nM	110.3 ± 0.78
sgRNA knockout: sgERN1, 100 nM	147 ± 53
sgRNA knockout: sgERN1, 1000 nM	83.9 ± 5.1
sgRNA knockout: sgERN1, 10000 nM	76.6 ± 22
sgRNA knockout: sgHSF1, 10 nM	81.9 ± 17
sgRNA knockout: sgHSF1, 100 nM	77.36 ± 0.27
sgRNA knockout: sgHSF1, 1000 nM	76.2 ± 20
sgRNA knockout: sgHSF1, 10000 nM	80.1 ± 3.4
sgRNA knockout: sgHSF2, 10 nM	103 ± 11
sgRNA knockout: sgHSF2, 100 nM	79.8 ± 4.4
sgRNA knockout: sgHSF2, 1000 nM	88.1 ± 21
sgRNA knockout: sgHSF2, 10000 nM	67.9 ± 7.6
sgRNA knockout: sgKEAP1, 10 nM	105 ± 2.4
sgRNA knockout: sgKEAP1, 100 nM	87.5 ± 27
sgRNA knockout: sgKEAP1, 1000 nM	90 ± 9.5
sgRNA knockout: sgKEAP1, 10000 nM	68.5 ± 21
sgRNA knockout: sgNFE2L2, 10 nM	79.7 ± 21
sgRNA knockout: sgNFE2L2, 100 nM	92.7 ± 6.1
sgRNA knockout: sgNFE2L2, 1000 nM	112 ± 39
sgRNA knockout: sgNFE2L2, 10000 nM	80 ± 25
sgRNA knockout: sgSLC35F2, 10 nM	89.1 ± 2.8
sgRNA knockout: sgSLC35F2, 100 nM	74.4 ± 6.3
sgRNA knockout: sgSLC35F2, 1000 nM	93.2 ± 4.9
sgRNA knockout: sgSLC35F2, 10000 nM	72.7 ± 13
sgRNA knockout: sgXBP1, 10 nM	86.6 ± 4.6
sgRNA knockout: sgXBP1, 100 nM	88.9 ± 3.5
sgRNA knockout: sgXBP1, 1000 nM	108 ± 3.7
sgRNA knockout: sgXBP1, 10000 nM	76.8 ± 14

CC(C)C[C@H](NC(=O)CNC(=O)c1cc(Cl)ccc1Cl)B(O)O [MLN2238]
Settings	relative cell number
sgRNA knockout: sgATF3, 10 nM	95.4 ± 16
sgRNA knockout: sgATF3, 100 nM	62.8 ± 10
sgRNA knockout: sgATF3, 1000 nM	8.12 ± 0.64
sgRNA knockout: sgATF3, 10000 nM	6.25 ± 1.1
sgRNA knockout: sgATF4, 10 nM	56.1 ± 3.3
sgRNA knockout: sgATF4, 100 nM	39 ± 8.5
sgRNA knockout: sgATF4, 1000 nM	6.62 ± 0.09
sgRNA knockout: sgATF4, 10000 nM	7.48 ± 8.2
sgRNA knockout: sgATF6, 10 nM	92.6 ± 20
sgRNA knockout: sgATF6, 100 nM	50.9 ± 13
sgRNA knockout: sgATF6, 1000 nM	10 ± 2.8
sgRNA knockout: sgATF6, 10000 nM	5.54 ± 3.6
sgRNA knockout: sgATG7, 10 nM	108 ± 8.7
sgRNA knockout: sgATG7, 100 nM	48 ± 4.2
sgRNA knockout: sgATG7, 1000 nM	8.22 ± 1.5
sgRNA knockout: sgATG7, 10000 nM	8.52 ± 6.8
sgRNA knockout: sgERN1, 10 nM	87.3 ± 26
sgRNA knockout: sgERN1, 100 nM	45.9 ± 3.3
sgRNA knockout: sgERN1, 1000 nM	8.21 ± 0.44
sgRNA knockout: sgERN1, 10000 nM	8 ± 1.6
sgRNA knockout: sgHSF1, 10 nM	63.3 ± 27
sgRNA knockout: sgHSF1, 100 nM	39.9 ± 7.9
sgRNA knockout: sgHSF1, 1000 nM	11.1 ± 2.1
sgRNA knockout: sgHSF1, 10000 nM	4.27 ± 1.1
sgRNA knockout: sgHSF2, 10 nM	101 ± 9.9
sgRNA knockout: sgHSF2, 100 nM	60.7 ± 2.7
sgRNA knockout: sgHSF2, 1000 nM	6.78 ± 1.1
sgRNA knockout: sgHSF2, 10000 nM	6.05 ± 2.8
sgRNA knockout: sgKEAP1, 10 nM	98.6 ± 13
sgRNA knockout: sgKEAP1, 100 nM	56.1 ± 2.9
sgRNA knockout: sgKEAP1, 1000 nM	7.84 ± 1.2
sgRNA knockout: sgKEAP1, 10000 nM	3.92 ± 1
sgRNA knockout: sgNFE2L2, 10 nM	74.5 ± 2.7
sgRNA knockout: sgNFE2L2, 100 nM	40.2 ± 13
sgRNA knockout: sgNFE2L2, 1000 nM	6.53 ± 1.8
sgRNA knockout: sgNFE2L2, 10000 nM	5.04 ± 2.3
sgRNA knockout: sgSLC35F2, 10 nM	105 ± 13
sgRNA knockout: sgSLC35F2, 100 nM	56 ± 17
sgRNA knockout: sgSLC35F2, 1000 nM	5.93 ± 1.4
sgRNA knockout: sgSLC35F2, 10000 nM	4.29 ± 3.8
sgRNA knockout: sgXBP1, 10 nM	65.4 ± 20
sgRNA knockout: sgXBP1, 100 nM	41.6 ± 12
sgRNA knockout: sgXBP1, 1000 nM	10.2 ± 1.6
sgRNA knockout: sgXBP1, 10000 nM	6.63 ± 2
